# “And” between values parts separate entries of the source, which are not always exact repeats. Equal entries are not always repeated. Some of the results follow. These are further read-outs of the screen, such as a control signal, another cell line or another target. No call is given for them. The list favours compounds with an active or inconclusive main result. Potencies come from curve fits of mixed quality, noted in brackets.
# Assay: qHTS Assay for Modulators of Lamin A Splicing
# Conditions: HeLa LMNA splicing GFP/RFP minigene ratio, 48 h
# Method in brief: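 S3 HeLa stable clones carrying a lamin A-EGFP splicing minigene plus DsRed2 were seeded at 600 cells/well in Opti-MEM with 2% FBS, pin-dosed and incubated 48 h at 37°C. Acumen cytometry (488 nm) gave the GFP/RFP total-intensity ratio.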
# [1] = measured here: RFP viability control channel
# [2] = measured here: GFP splicing reporter channel
Compound,AC50 [1],AC50 [2]
COc1ccc(Nc2nnc(SCc3cn4c(C)cccc4n3)s2)cc1,"35.5 µM [rising, single point]",–
CCOc1ccc2c(c1)C(c1cccs1)=NNC(c1cccnc1)=N2,"11.2 µM [rising, single point]",–
CCCNS(=O)(=O)c1ccc(CCC(=O)NCc2ccc3c(c2)OCO3)cc1,"35.5 µM [rising, single point]","25.1 µM [rising, single point]"
Cc1cc(Cl)cc(Cl)c1OCC(=O)NCc1ccco1,"0.0316 µM [falling, full curve, poor fit]",–
Cn1nc(C(=O)NNc2c(F)c(F)cc(F)c2F)c2ccccc2c1=O,"17.8 µM [rising, partial curve, poor fit]",–
COCCN(Cc1cc2cc3c(cc2nc1Cl)OCO3)C(=O)Nc1ccccc1OC,"12.6 µM [rising, partial curve]",–
Cc1cc(C)c2oc(C(=O)Nc3ccc(S(=O)(=O)N4CCCC(C)C4)cc3)cc(=O)c2c1 (stereo not drawn),–,"12.6 µM [rising, partial curve, poor fit]"
O=c1cc(-c2ccccc2)[nH]c2ccc(F)cc12,"14.1 µM [rising, single point]","5.62 µM [rising, single point]"
Nc1ncnc(Nc2cccc(Cl)c2Cl)n1,"0.0178 µM [rising, full curve, poor fit]","0.112 µM [rising, partial curve]"
CCN1CCC2(CC1)N=C(c1ccc(F)cc1)C(=S)N2C(=O)c1ccc(C)cc1,"35.5 µM [rising, single point]",–
CCCn1cnc2c(cnn2-c2ccc(F)cc2)c1=O,"14.1 µM [rising, single point]",–
CC1=C(C(=O)Nc2ccccc2)C(c2ccc(C(=O)O)cc2)n2ncnc2N1 (stereo not drawn),"12.6 µM [rising, partial curve, poor fit]",–
Cc1ccc(NC(=O)CCCn2c(=O)c3cccn3c3ccccc32)c(C)c1,"6.31 µM [rising, partial curve, poor fit]","0.794 µM [rising, full curve, poor fit]"
COc1cc(C(=O)c2ccccc2Cl)c([N+](=O)[O-])cc1OC,"0.794 µM [rising, partial curve]","0.224 µM [rising, full curve]"
C=CCN=c1scc(-c2ccc(F)cc2)n1/N=C/c1ccccn1,"14.1 µM [rising, single point]",–
O=C(Cc1ccc(Cl)c(Cl)c1)Nc1ccccc1N1CCOCC1,"5.62 µM [falling, single point]",–
Cc1ccc(-c2csc(NC(=O)c3cccc(S(=O)(=O)N4CCN(C)CC4)c3)n2)cc1,"14.1 µM [rising, partial curve]","12.6 µM [rising, partial curve, poor fit]"
NNC(=O)c1cc2c(N3CCC(Cc4ccccc4)CC3)ncnc2s1,"31.6 µM [rising, single point]",–
NCCc1cnc[nH]1,–,"1 µM [falling, full curve]"
C(=C\c1ccccc1)/CN1CCN(c2ncnc3c2oc2ccccc23)CC1,"2.82 µM [rising, full curve]",–
COc1ccc(NC(=O)c2cc3c(s2)CCC3)cc1S(=O)(=O)N1CCOCC1,"31.6 µM [rising, single point]",–
CN1CCN(C(=O)c2cc(Cl)ccc2Cl)CC1,"0.0141 µM [falling, full curve, poor fit]",–
Cc1cccc(NC(=S)NNc2ncc(C(F)(F)F)cc2Cl)c1,"12.6 µM [rising, partial curve]","11.2 µM [rising, partial curve, poor fit]"
NS(=O)(=O)c1ccc(CCNC(=O)NC2(C(F)(F)F)Oc3ccccc3O2)cc1,"35.5 µM [rising, single point]",–
Cc1cc(C)c(C)c(S(=O)(=O)N2CCN(CC(=O)c3c(N)n(Cc4ccccc4)c(=O)n(C)c3=O)CC2)c1C,"17.8 µM [rising, single point]",–
COc1ccc(-c2nnn(CC(=O)N(Cc3cccs3)C(C)C(=O)NC3CCCC3)n2)cc1OC (stereo not drawn),"14.1 µM [rising, single point]",–
CCOC(=O)C1CCN(C2CC(=O)N(c3ccc(OCC)cc3)C2=O)CC1 (stereo not drawn),"35.5 µM [rising, single point]",–
O=c1oc2ccccc2nc1/C=C(O)/C=C/c1ccc(F)cc1,"17.8 µM [rising, single point]",–

# Filtered by structure, the compounds so far with a CF3 group
Compound,AC50 [1],AC50 [2]
Cc1cccc(NC(=S)NNc2ncc(C(F)(F)F)cc2Cl)c1,"12.6 µM [rising, partial curve]","11.2 µM [rising, partial curve, poor fit]"
NS(=O)(=O)c1ccc(CCNC(=O)NC2(C(F)(F)F)Oc3ccccc3O2)cc1,"35.5 µM [rising, single point]",–

# Following part.

Compound,AC50 [1],AC50 [2]
CCCn1c(SCC(=O)NCC2CCCO2)nc2c1c(=O)n(C)c(=O)n2C (stereo not drawn),–,"11.2 µM [rising, single point]"
Cc1ccc(C(C)C)c(OCC(=O)Nc2ccccc2N2CCN(C)CC2)c1,"11.2 µM [rising, single point]",–
Cn1c(=O)n(C)c2cc(NC(=O)CCl)ccc21,"2.82 µM [falling, partial curve, poor fit]","2.82 µM [falling, partial curve, poor fit]"
O=C(c1ccc(S(=O)(=O)c2cccc(Cl)c2)c([N+](=O)[O-])c1)N1CCN(Cc2ccccc2)CC1,"35.5 µM [falling, single point]","35.5 µM [falling, single point]"
Cc1ccc(S(=O)(=O)N2CCCCC2C(=O)NCc2ccco2)cc1 (stereo not drawn),"0.316 µM [falling, single point]",–
Clc1cccc(-n2cc(-c3ccccc3)c3c(N4CCCCC4)ncnc32)c1,"0.562 µM [falling, full curve]","4.47 µM [falling, partial curve]"
Cn1c(O)c(/C=C2\C=NN=C2c2ccccc2)sc1=S,"35.5 µM [falling, single point]",–
Fc1ccc(-n2cc(-c3ccccc3)c3c(NCCc4ccccc4)ncnc32)cc1,"1 µM [rising, full curve, poor fit]",–
CCC(C)(C)NC(=O)C1CCN(S(=O)(=O)c2c(C)noc2/C=C/c2ccc(C)cc2)CC1,"0.00316 µM [falling, full curve, poor fit]",–
Cn1c(/C(C#N)=C(\O)COc2ccc3ccccc3c2)nc2ccccc21,–,"0.00501 µM [rising, full curve, poor fit]"
CCOC(=O)N1CCC(n2c(SCC(=O)NCCC3=CCCCC3)nc3ccccc3c2=O)CC1,"10 µM [rising, partial curve, poor fit]",–
COc1cccc(CNC(=O)c2oc3c(c2C)-c2nn(Cc4cccc(Cl)c4)cc2CC3)c1,"35.5 µM [falling, partial curve]","35.5 µM [falling, partial curve]"
COc1ccc(/C=C/C(=O)Nc2ccc3c(c2)CCC3)cc1OC,"12.6 µM [rising, partial curve]",–
CCOc1ccccc1CNC(=O)C1CCN(c2nc3ccccc3o2)CC1,"15.8 µM [rising, partial curve]","11.2 µM [rising, partial curve, poor fit]"
CCOC(=O)CN1C(=O)N[C@@H](c2cccc(C(F)(F)F)c2)[C@H](C(C)=O)[C@H]1C,–,"0.000891 µM [rising, full curve, poor fit]"
COc1ccc(-c2nnc(COc3ccc4ccccc4c3)o2)cc1OC,"14.1 µM [rising, single point]",–
CC(C)Cn1c(/C=C/c2ccccc2)nc2ccccc21,"17.8 µM [rising, partial curve, poor fit]",–
CN(C)S(=O)(=O)c1cccc(NC(=O)COC(=O)c2cn(-c3ccccc3)nc2-c2ccccc2)c1,"35.5 µM [rising, single point]","35.5 µM [rising, single point]"
Cc1ccccc1NC(=O)CN1C(=O)N/C(=C\c2cccn2-c2cccc(C(=O)O)c2)C1=O,"0.00447 µM [falling, full curve, poor fit]","0.158 µM [falling, full curve, poor fit]"
Cc1ncc(CC(=O)n2cc(C(=O)c3cc(Cl)ccc3O)cn2)s1,–,"5.62 µM [rising, partial curve]"
NCCCC(=O)O,"5.62 µM [rising, single point] and 6.31 µM [falling, single point] and 7.94 nM [falling, full curve, poor fit]","5.62 µM [rising, single point] and 50.1 nM [rising, full curve, poor fit]"
COc1cccc(OCc2ccc(C(=O)NCC3CCCO3)cc2)c1 (stereo not drawn),"14.1 µM [rising, partial curve]","17.8 µM [rising, single point]"
c1csc(-c2nnc(NC3CCCCC3)c3ccccc23)c1,"35.5 µM [rising, single point]",–
Cc1ccc(-c2nn(C(C)(C)C)c3ncnc(N)c23)cc1,–,"17.8 µM [falling, single point]"
Cc1nn(Cc2ccccc2)c(C)c1C(=O)OCC(=O)c1cc(C)n(CC(F)(F)F)c1C,–,"28.2 µM [rising, single point]"
Nc1ncnc2c1nc(Cl)n2C1OC(CO)C(O)C1O (stereo not drawn),"0.891 µM [rising, full curve]","0.398 µM [rising, full curve]"
COc1ccccc1C(=O)OCCNC(=O)Cn1cnc2c1c(=O)n(C)c(=O)n2C,"0.00447 µM [falling, full curve, poor fit]","0.0398 µM [falling, full curve, poor fit]"
